# Data reported in PubChem BioAssay AID463116 (University of Pittsburgh Molecular Library Screening Center, 2010).
# The other results are listed elsewhere or left out. The main result of the screen is listed elsewhere. These columns were measured beside it and carry no call. Compounds called inactive in the main read-out are mostly missing here.
# Test: dynein cargo transport inhibitors, GR-EGFP translocation, confirmation, imaging, high-content imaging, GR-EGFP cells (AID 463116)
# Settings: 3617.4 GR-EGFP nuclear translocation imaging, dexamethasone-induced; measured here: cell count per field; at 20 µM
row,Structure (SMILES),z-score
1,N/C(=C\C(=O)c1cc(Cl)ccc1O)C(Cl)(Cl)Cl,0.0252
2,Cn1nnnc1SC1CC(=O)N(c2ccccc2)C1=O (centres undefined),0.392
3,CC1CC(C)(C)Nc2ccc(N=O)cc21 (centres undefined),-0.121
4,CN(Cc1ccc(Cl)s1)C(=O)CCl,0.193
5,O=c1cc(-c2c(F)c(F)c(F)c(F)c2F)oc2c(F)c(F)c(F)c(F)c12,0.274
6,CCOC(=S)SCC(=O)Nc1nc(C)c(C)s1,-0.00753
7,CCOC(=S)SCC(=O)Nc1ncc(C)s1,0.146
8,Cc1ccc2[nH]c(=O)c(CN(CCCO)S(=O)(=O)c3c(C)ccc4nsnc34)cc2c1,0.37
9,O=C(/C=C/c1ccco1)Nc1ccccc1N1CCCC1,0.155
10,CCOC(=O)c1c(C)sc2c1N(C(=O)CCl)c1cc(Cl)ccc1S2,0.296
11,O=C(NC1CCCCC1)C(c1cccnc1)N(C(=O)CCl)c1cccc(Cl)c1 (centres undefined),0.311
12,Cc1cc(S(=O)(=O)Nc2cc(C)c(O)c(C)c2)c(C)s1,-0.039
13,CC(C)c1ccc(/C=C/C(=O)n2nnc3ccccc32)cc1,-0.0508
14,CC1OC(OC2C(OC3C(O[C@H]4CC[C@]5(C)C6C=C[C@]78OC[C@@]9(CC[C@@H](C)[C@H](C)C97)[C@H](O)C[C@@]8(C)[C@]6(C)CC[C@H]5C4(C)C)OC(C)C(O)C3O)OC(CO)C(O)C2O)C(O)C(O)C1O (some centres undefined),-5.06
15,COc1ccc(C(=O)/C=C/C(=O)N(CC(=O)NC2CCCCC2)Cc2ccc(F)cc2)c(O)c1,-1.39
16,Cc1ccc(CN=Cc2[nH]c3ccc(Br)c(Cl)c3c2O)cc1,0.109
17,Cc1nc([N+](=O)[O-])c(Br)n1CC(=O)c1ccc(Br)cc1,0.7
18,COc1ccc(C(=O)C(CN2CCCC2)c2ccccc2)cc1 (centres undefined),0.395
19,Cc1ccc2cc(CN(CC3CCCO3)C(=S)NCc3ccco3)c(=O)[nH]c2c1 (centres undefined),0.214
20,Cc1ccccc1N1C(=O)CC(Sc2nnc(-c3ccccc3)o2)C1=O (centres undefined),-0.536
21,O=C(CCl)N1CCN2C(=O)c3ccccc3C12c1ccc(Cl)cc1 (centres undefined),-0.0243
22,CC(C)(C)c1ccc(C(=O)CC(Sc2ccc(Cl)cc2)C(=O)O)cc1 (centres undefined),0.161

# Six structures already listed, ordered by molar mass, falling:
row,Structure (SMILES),z-score
14,CC1OC(OC2C(OC3C(O[C@H]4CC[C@]5(C)C6C=C[C@]78OC[C@@]9(CC[C@@H](C)[C@H](C)C97)[C@H](O)C[C@@]8(C)[C@]6(C)CC[C@H]5C4(C)C)OC(C)C(O)C3O)OC(CO)C(O)C2O)C(O)C(O)C1O (some centres undefined),-5.06
15,COc1ccc(C(=O)/C=C/C(=O)N(CC(=O)NC2CCCCC2)Cc2ccc(F)cc2)c(O)c1,-1.39
11,O=C(NC1CCCCC1)C(c1cccnc1)N(C(=O)CCl)c1cccc(Cl)c1 (centres undefined),0.311
22,CC(C)(C)c1ccc(C(=O)CC(Sc2ccc(Cl)cc2)C(=O)O)cc1 (centres undefined),0.161
1,N/C(=C\C(=O)c1cc(Cl)ccc1O)C(Cl)(Cl)Cl,0.0252
13,CC(C)c1ccc(/C=C/C(=O)n2nnc3ccccc32)cc1,-0.0508

# Continued:

row,Structure (SMILES),z-score
1,C=C(CCC(=O)c1ccccc1)C(=O)c1ccccc1,-0.709
2,CN(C)c1oc(-c2ccccc2[N+](=O)[O-])nc1C#N,0.317
3,O=c1cc(C(Cl)(Cl)Cl)oc2c1ccc1ccccc12,0.0481
4,COC(=O)c1cc(=O)n(CCc2ccc(OC)c(OC)c2)c(=Nc2ccc(F)c(Cl)c2)s1,0.43
5,CC1=NN(c2ccccc2)C(=O)/C1=C/C=C/c1ccccc1,0.987
6,O=C(Nc1ccc(Cl)cc1)/C(=C/c1cccc(O)c1)c1nc2ccccc2s1,-0.212
7,CCN(CC)c1ccc(/C=C2/SC(=O)N(C(C)C)C2=O)o1,-0.0463
8,C#CC(=O)N(c1cc(OC)ccc1OC)C(C(=O)NC1CCCC1)c1cccs1 (centres undefined),-0.722
9,COc1ccc(-n2cccc2/C=C/[N+](=O)[O-])cc1,0.0783
10,O=C(OCCN1C(=O)c2cccc3c(N4CCOCC4)ccc(c23)C1=O)c1ccc(Cl)cc1Cl,0.285
11,COC(=O)c1cc(=O)n(Cc2ccc(F)cc2)c(=Nc2ccccc2)s1,0.0771
12,CC1CCc2cc(F)ccc2N1C(=O)CCl (centres undefined),-0.109
13,COc1ccccc1NS(=O)(=O)c1cc([N+](=O)[O-])ccc1N/N=C/c1c[nH]c2ccccc12,0.927
14,CCCCCCN(C(=O)CCl)c1ccccc1,0.247
15,CC1=CC(=O)C(C(C)C)=CC1=NC(=O)c1ccc(C)cc1,0.0272
16,COC(CN(C(=O)CCl)C(C(=O)NC1CCCC(C)C1C)c1ccc(C)cc1)OC (centres undefined),-0.105
17,COC(=O)c1ccc(-n2c(C)cc(C(=O)CCl)c2C)cc1,0.474
18,Cc1onc(-c2ccccc2)c1-c1nc2cc(Cl)ccc2c(=O)o1,-0.806
19,O=C1C=CC(=O)N1c1cccc(-c2ccccc2)c1,-3.78
20,O=c1[nH]c2ccccc2c2oc(CCl)nc12,-0.143
21,COc1ccc(-c2c(C#N)c(N)nc3sc(C(=O)c4ccccc4)c(N)c23)cc1,0.138
22,CC(=O)c1sc2nc(-c3cccs3)cc(C(F)(F)F)c2c1N,0.554

row,Structure (SMILES),z-score
1,CC1(C)Cc2c(sc3c4nnnn4c4nnnn4c23)CO1,0.814
2,COc1ccc(C(=O)Cn2c(C)nc([N+](=O)[O-])c2Br)cc1,-0.551
3,N#CC(C#N)=Cc1cc2ccccc2nc1N1CCCCC1,-0.161
4,COC(=O)C1=C(C)N(Cc2ccc(C)cc2)C(=O)/C1=C\c1cc(OC)c(OC)c(OC)c1,-0.224
5,N#CC1=C(N)C(C#N)(C#N)C(c2ccncc2)C2CN(C(=O)OCc3ccccc3)CC=C12 (centres undefined),0.0706
6,Cc1nn(-c2ccccc2)c(Cl)c1CN(C(=O)CCl)c1ccc(Cl)cc1,-0.842
7,CN(C)S(=O)(=O)c1cccc(-n2sc3ccccc3c2=O)c1,0.633
8,O=C(NC1CCCC1)C(c1ccc(F)cc1)N(Cc1ccc(F)cc1)C(=O)CCl (centres undefined),0.699
9,CC1=NOC(=O)/C1=C\c1ccc(-c2ccccc2Br)o1,0.22
10,CCC(=O)OCCNc1cc(Sc2nccn2C)c2nonc2c1[N+](=O)[O-],-1.29
11,CCOC(=O)C(C(=O)OCC)C(C(=O)OCC)N1CCOCC1 (centres undefined),0.201
12,CCN(CC)c1ccc(/C=C/c2cc(-c3ccccc3)c3ccccc3n2)cc1,0.299
13,COc1ccc([N+](=O)[O-])c(S(=O)(=O)c2ccc(Cl)cc2)n1,0.421
14,CCOc1cc(/C=C2\C(=O)N(CCc3ccc(OC)c(OC)c3)C(C)=C2C(=O)OC)ccc1O,0.0247
15,N#CC1=C(N)OC2=C(CC/C2=C\c2ccccc2)C1c1ccccc1 (centres undefined),0.0473
16,CC(C)(C)C(=O)Cn1ncc(Cl)c(Cl)c1=O,0.651
17,CCCc1cc(NC(=O)CCl)n(-c2ccccc2)n1,0.664
18,CC(C)(C)C(=O)Cn1ncc(Br)c(Br)c1=O,0.335
19,COc1ccc(C(=O)c2sc3nc(C)cc(-c4cccs4)c3c2N)cc1,-0.0913
20,COC(=O)C(=C/C(C)=C/c1cccnc1)C(=O)OC,-0.0161
21,O=[N+]([O-])c1ccc(Sc2ncccn2)c([N+](=O)[O-])c1,-1.05
22,COc1ccccc1C1Nc2cccc3cccc(c23)N1,0.733

row,Structure (SMILES),z-score
1,O=C1N/C(=C/c2ccc(N3CCOCC3)o2)C(=O)N1c1cccc(Cl)c1,-0.678
2,O=C(NC1CCCCC1)C(c1cccnc1)N(C(=O)CCl)c1ccc(F)cc1 (centres undefined),0.847
3,O=c1c(Cl)nc2cc(Cl)ccc2n1CCNc1ncc(C(F)(F)F)cc1Cl,-2.29
4,Cc1ccc(C2=NOC(=O)/C2=C\C=C\c2ccccc2)cc1,-1.24
5,Cn1cc(C(=O)CCl)c2ccccc21,-0.126
6,CC(=O)N(C1CC(C)C(C#N)(C#N)C1(C#N)C#N)N(C)C (centres undefined),0.641
7,CCCSc1cc(NCCOC(=O)CCC)c([N+](=O)[O-])c2nonc12,-1.01
8,Cc1nc([N+](=O)[O-])c(Br)n1CC(=O)c1ccc(Cl)cc1,0.654
9,Cc1nc(COC(=O)c2cc(O)c3ccccc3c2O)cs1,0.453
10,COCc1cc(S(=O)c2ccc(Cl)cc2)nc(C)n1 (centres undefined),0.46
11,CC(=O)N(C)Cc1ccc(C(=O)CCl)cc1,0.17
12,O=C(/C=C/c1ccc(F)cc1)c1cc(Br)ccc1O,-0.255
13,CCc1sc(C(C2C(=O)CC(C)(C)CC2=O)C2C(=O)CC(C)(C)CC2=O)cc1[N+](=O)[O-],-0.404
14,COc1cccc(/C=C/C(=O)c2cccc([N+](=O)[O-])c2)c1,-0.44
15,COc1cc(NC(=O)Cn2ncc(Cl)c(Cl)c2=O)c(C)cc1[N+](=O)[O-],0.0435
16,Cc1ccc(C(=O)N/C(=C\c2ccc(-c3ccc(Cl)cc3)o2)C(=O)NCCCN(C)C)cc1,-5.27
17,CC(C)N1C(=O)/C(=C/c2nc3ccccc3c(=O)n2-c2ccccc2)c2ccccc21,0.587
18,Cc1ccc(C2=NN(C(=O)CCl)C(c3cccs3)C2)o1 (centres undefined),0.237
19,O=C1C(Cl)=C(N2CCCCC2)C(=O)C(Cl)=C1c1cnc(N2CCCCC2)s1,-0.951
20,N#CCCS(=O)(=O)c1nnnn1-c1ccccc1,-1.09
21,Cc1ccc(S(=O)(=O)/N=C(\CCl)N2CCOCC2)cc1,0.779
22,COc1ccc(OC)c(CCNC(=O)Cn2sc3nc(C)cc(C)c3c2=O)c1,-1.38

row,Structure (SMILES),z-score
1,COC(=O)c1cc(NC(=O)c2cccc(Cl)c2)c(=O)oc1/C=C/Nc1cc(C)cc(C)c1,0.037
2,O=C(/C=C\c1ccccc1OC(=O)c1ccccc1F)c1cc2ccccc2o1,-0.761
3,COc1cc(N2CCCC2)c(OC)cc1/C=C1/NC(=S)NC1=O,0.298
4,COc1cccc(C(=O)C(C#N)=C(SC)SC)c1,0.409
5,Cc1ccccc1-n1sc2cc(F)ccc2c1=O,0.688
6,Cc1ccccc1-n1nnnc1Sc1nnnn1-c1ccccc1,-0.393
7,COc1ccc(Nc2ccccc2N)cc1,-0.0262
8,O=C(CCl)N(C/C=C/c1ccccc1)c1ccc2c(c1)OCCO2,0.0574
9,CCCCCCc1cc2cc(C(=O)NC)c(=N)oc2cc1O,0.424
10,O=C(O)c1ccc(NC2=C/C(=N/S(=O)(=O)c3ccccc3)c3ccccc3C2=O)cc1,0.214
11,COc1cc(/C=C2/C(=O)c3cccc([N+](=O)[O-])c3C2=O)c(Br)cc1O,-0.108
12,N#CC(C#N)=C1C=C2C=C(N3CCCCCC3)CCC2CC1 (centres undefined),0.233
13,Cc1ccc(NN2C(=O)C=C(c3ccccc3)C2=O)cc1,0.678
14,CCOC(=O)c1cc(-c2ccc(/C=C3/C(=O)NC(=O)C(C#N)=C3C)o2)ccc1Cl,0.391
15,O=C1C=CC2C(c3ccc4c(c3)OCO4)CC1N2Cc1ccccc1 (centres undefined),-0.0299
16,O=[N+]([O-])/C=C/c1cn(Cc2ccccc2)c2ccccc12,0.373
17,C#CC(=O)N(c1ccc(OC)cc1OC)C(C(=O)NC1CCCC1)c1cccs1 (centres undefined),0.176
18,CC1=NOC(=O)/C1=C\c1ccc(-c2ccc(Br)cc2)o1,0.304
19,O=S1(=O)C=C(Sc2nc3ccccc3s2)c2ccccc21,-0.38
20,COc1cc2c(cc1OC)CN(CCC(=O)c1ccc(Br)cc1)CC2,0.228
21,Cc1nc2c(=O)n(C)c(=O)n(C)c2nc1Cl,0.676
